To fix the notation:
B1: Hu-6 18006B* (recombinant mIgG2a) (antibody, V domains shown)
VH: QVQLVQSGAEVKKPGASVKVSCKTSGYTFTYYGISWVRQAPGQGLEWMGLISAYNGNTNYGQKVQGRVTMTTDTSTSTAYMELRSLRSDDTAVYYCVTENINWRDAFDIWGQGTMVTVSS
VL: EIVLTQSPDFQSVTPKEKVTITCRASQTIGSSLHWYQQKPDQSPKLLIKYASQSISGVPSRFSGSGSGTDFTLTINSLEAEDAAAYYCHQSSSLPYTFGQGTKLEIK
B2: Hu-4 18006B (purified from hybridoma) (antibody, IgG2c, V domains shown)
VH: QVHLVQSGAEVKKPGASVKVSCKASGYTFSSYGINWVRQAPGQGLEWMGWISAYSGNTDYSQHLQGRVTMTTDTSTNTAYMELRSLRSDDTAVYYCARASANWYDYFDPWGQGTLVTVSS
VL: B1 VL with S31G, K49T, I55F, N76H, A85T, S93I
B3: Hu-4 18006B* (recombinant, mIgG2a) (antibody, V domains shown)
VH: B2 VH
VL: B1 VL with S31G, K49T, I55F, N76H, A85T, S93I
B4: Hu-2 18006B (antibody, V domains shown)
VH: QVQLVQSGAEVKKPGASVKVSCKASGYTFTTYGISWVRQAPGQGLEWMGWISAYNGNTKYAQKLQGRVTMTTDTSTSTAYMELRSLRSDDTAVYYCAREWRAFYYYGLDVWGQGTTVTVSS
VL: DIVMTQTPLSSPVTLGQPASISCRSSQSLEHSDGNTYLSWLQQRPNQPPRLLIYKVSNRFSGVPDRFSGSGAGTDFTLKISRVEAEDVGVYYCTQATQFPLTFGGGTKVEIK
notes: Purified from hybridoma (Trianni mice); also called H-2 1800B (mIgG1)
B5: Hu-5 18006B (antibody, IgG2b, V domains shown)
VH: QLQLQESGPGLVKPSETLSLTCTVSGGSISSSSFYWGWIRQPPGKGLEWIGSIYYSGSTYYNPSLKSRVTISVDTSKNQFSLKLSSVTAADTAVYFCARHGVRGVIPHFDYWGQGTLVTVSS
VL: QTVLTQEPSFSVSPGGTVTLTCGLNSGSVSTIYYPSWYQQTPGQAPRALIYSTNTRSSGVPDRFSGSILGNKAALTITGAQADDESDYYCVLFLGSGLVFGGGTKLTVL
notes: Purified from hybridoma
B6: Hu-4 18006B** (recombinant, hIgG4) (antibody, V domains shown)
VH: B2 VH
VL: B1 VL with S31G, K49T, I55F, N76H, A85T, S93I

Protein sequences, listed by entry. Tags and fused reporters are not part of them. Lines headed by an entry give the natural chain unless they say otherwise; changes in a name come on top.
UniProt Q9NPF7: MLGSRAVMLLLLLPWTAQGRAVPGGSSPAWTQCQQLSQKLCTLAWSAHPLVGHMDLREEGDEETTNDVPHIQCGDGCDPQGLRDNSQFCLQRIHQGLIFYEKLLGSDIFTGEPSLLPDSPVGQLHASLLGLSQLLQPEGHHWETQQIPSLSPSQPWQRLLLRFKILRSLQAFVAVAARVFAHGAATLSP
UniProt P43432: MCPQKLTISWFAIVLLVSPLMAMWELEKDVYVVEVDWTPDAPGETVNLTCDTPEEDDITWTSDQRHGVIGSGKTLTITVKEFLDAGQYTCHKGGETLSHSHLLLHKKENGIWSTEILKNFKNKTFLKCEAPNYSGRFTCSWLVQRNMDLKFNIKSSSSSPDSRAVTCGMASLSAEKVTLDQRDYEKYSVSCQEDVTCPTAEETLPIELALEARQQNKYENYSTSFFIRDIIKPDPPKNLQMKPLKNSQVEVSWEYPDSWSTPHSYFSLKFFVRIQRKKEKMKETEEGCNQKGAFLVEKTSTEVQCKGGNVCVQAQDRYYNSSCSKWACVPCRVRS

Positions count from the first letter of the chain named. Results are given in words; binding and its absence hold for the method and conditions named. Some binding calls cover weakened binding; strength is not graded here.

The first assay has as its target T1, human p19/mouse p40 heterodimer protein (human; mouse) (UniProt Q9NPF7+P43432). The assay can be described thus: ELISA.
For B1, the binding result was “binds”.
Turning to B2, the binding entry is reported as “binds”.
In the case of B3, the binding result is recorded as “binds”.
The same measure, in the same setting: the value for B4 was “binds”.

Another assay deals with T1, human p19/mouse p40 heterodimer protein (human; mouse). The assay can be described thus: SPR (BIAcore).
Turning to B5, the binding entry was “binds”.
On the same count and under the same terms, the value for B6 was “binds”; that for B1 was “binds”; that for B3 was “binds”.
Regarding B4, the binding entry is reported as “binds”.

For the next assay the target is unchanged. The assay can be described thus: ELISA; antigen coated directly on plate.
B1: the binding entry was “binds”.
For the molecule B2, the binding entry is “binds”.
The same measure, in the same setting: the value for B3 was “binds”; that for B4 was “binds”.

Another assay shares this target. The assay can be described thus: SPR (BIAcore); antibody captured on anti-Fc chip, antigen injected.
As for B5, the binding result is given as “binds”.
As to B6, the binding result is on record as “binds”.
Still for that read-out and setting: with B1 the entry was “binds”.
On to B3, for which the binding entry is “binds”.
Same read-out and setting: with B4 the entry was “binds”.

Source of the values: patent publication US20220332811A1 (NOVAROCK BIOTHERAPEUTICS, published 2022).
